The list shows a part of the results.
Compound: Cc1cc(ccc1-c1ccccc1)C(=O)N1CCCN(CC1)C(=O)CCl [compound 10]
Experiment: probe-labelled cysteine peptide fold change vs DMSO (competition) (log2 fold change); higher = less target engagement (more negative = stronger competition)
Settings: THP-1, incubation time: 4 h
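Further: competitive profiling in live THP-1 cells: cysteine peptides tagged with an iodoacetamide desthiobiotin (IA-DTB) probe, intensity after compound treatment relative to DMSO-treated cells.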

Sequences of proteins named here, by UniProt entry; tags and fusion partners are left off. A change or cut given only in a name is not applied to a line headed by its entry.
UniProt Q9NZJ4: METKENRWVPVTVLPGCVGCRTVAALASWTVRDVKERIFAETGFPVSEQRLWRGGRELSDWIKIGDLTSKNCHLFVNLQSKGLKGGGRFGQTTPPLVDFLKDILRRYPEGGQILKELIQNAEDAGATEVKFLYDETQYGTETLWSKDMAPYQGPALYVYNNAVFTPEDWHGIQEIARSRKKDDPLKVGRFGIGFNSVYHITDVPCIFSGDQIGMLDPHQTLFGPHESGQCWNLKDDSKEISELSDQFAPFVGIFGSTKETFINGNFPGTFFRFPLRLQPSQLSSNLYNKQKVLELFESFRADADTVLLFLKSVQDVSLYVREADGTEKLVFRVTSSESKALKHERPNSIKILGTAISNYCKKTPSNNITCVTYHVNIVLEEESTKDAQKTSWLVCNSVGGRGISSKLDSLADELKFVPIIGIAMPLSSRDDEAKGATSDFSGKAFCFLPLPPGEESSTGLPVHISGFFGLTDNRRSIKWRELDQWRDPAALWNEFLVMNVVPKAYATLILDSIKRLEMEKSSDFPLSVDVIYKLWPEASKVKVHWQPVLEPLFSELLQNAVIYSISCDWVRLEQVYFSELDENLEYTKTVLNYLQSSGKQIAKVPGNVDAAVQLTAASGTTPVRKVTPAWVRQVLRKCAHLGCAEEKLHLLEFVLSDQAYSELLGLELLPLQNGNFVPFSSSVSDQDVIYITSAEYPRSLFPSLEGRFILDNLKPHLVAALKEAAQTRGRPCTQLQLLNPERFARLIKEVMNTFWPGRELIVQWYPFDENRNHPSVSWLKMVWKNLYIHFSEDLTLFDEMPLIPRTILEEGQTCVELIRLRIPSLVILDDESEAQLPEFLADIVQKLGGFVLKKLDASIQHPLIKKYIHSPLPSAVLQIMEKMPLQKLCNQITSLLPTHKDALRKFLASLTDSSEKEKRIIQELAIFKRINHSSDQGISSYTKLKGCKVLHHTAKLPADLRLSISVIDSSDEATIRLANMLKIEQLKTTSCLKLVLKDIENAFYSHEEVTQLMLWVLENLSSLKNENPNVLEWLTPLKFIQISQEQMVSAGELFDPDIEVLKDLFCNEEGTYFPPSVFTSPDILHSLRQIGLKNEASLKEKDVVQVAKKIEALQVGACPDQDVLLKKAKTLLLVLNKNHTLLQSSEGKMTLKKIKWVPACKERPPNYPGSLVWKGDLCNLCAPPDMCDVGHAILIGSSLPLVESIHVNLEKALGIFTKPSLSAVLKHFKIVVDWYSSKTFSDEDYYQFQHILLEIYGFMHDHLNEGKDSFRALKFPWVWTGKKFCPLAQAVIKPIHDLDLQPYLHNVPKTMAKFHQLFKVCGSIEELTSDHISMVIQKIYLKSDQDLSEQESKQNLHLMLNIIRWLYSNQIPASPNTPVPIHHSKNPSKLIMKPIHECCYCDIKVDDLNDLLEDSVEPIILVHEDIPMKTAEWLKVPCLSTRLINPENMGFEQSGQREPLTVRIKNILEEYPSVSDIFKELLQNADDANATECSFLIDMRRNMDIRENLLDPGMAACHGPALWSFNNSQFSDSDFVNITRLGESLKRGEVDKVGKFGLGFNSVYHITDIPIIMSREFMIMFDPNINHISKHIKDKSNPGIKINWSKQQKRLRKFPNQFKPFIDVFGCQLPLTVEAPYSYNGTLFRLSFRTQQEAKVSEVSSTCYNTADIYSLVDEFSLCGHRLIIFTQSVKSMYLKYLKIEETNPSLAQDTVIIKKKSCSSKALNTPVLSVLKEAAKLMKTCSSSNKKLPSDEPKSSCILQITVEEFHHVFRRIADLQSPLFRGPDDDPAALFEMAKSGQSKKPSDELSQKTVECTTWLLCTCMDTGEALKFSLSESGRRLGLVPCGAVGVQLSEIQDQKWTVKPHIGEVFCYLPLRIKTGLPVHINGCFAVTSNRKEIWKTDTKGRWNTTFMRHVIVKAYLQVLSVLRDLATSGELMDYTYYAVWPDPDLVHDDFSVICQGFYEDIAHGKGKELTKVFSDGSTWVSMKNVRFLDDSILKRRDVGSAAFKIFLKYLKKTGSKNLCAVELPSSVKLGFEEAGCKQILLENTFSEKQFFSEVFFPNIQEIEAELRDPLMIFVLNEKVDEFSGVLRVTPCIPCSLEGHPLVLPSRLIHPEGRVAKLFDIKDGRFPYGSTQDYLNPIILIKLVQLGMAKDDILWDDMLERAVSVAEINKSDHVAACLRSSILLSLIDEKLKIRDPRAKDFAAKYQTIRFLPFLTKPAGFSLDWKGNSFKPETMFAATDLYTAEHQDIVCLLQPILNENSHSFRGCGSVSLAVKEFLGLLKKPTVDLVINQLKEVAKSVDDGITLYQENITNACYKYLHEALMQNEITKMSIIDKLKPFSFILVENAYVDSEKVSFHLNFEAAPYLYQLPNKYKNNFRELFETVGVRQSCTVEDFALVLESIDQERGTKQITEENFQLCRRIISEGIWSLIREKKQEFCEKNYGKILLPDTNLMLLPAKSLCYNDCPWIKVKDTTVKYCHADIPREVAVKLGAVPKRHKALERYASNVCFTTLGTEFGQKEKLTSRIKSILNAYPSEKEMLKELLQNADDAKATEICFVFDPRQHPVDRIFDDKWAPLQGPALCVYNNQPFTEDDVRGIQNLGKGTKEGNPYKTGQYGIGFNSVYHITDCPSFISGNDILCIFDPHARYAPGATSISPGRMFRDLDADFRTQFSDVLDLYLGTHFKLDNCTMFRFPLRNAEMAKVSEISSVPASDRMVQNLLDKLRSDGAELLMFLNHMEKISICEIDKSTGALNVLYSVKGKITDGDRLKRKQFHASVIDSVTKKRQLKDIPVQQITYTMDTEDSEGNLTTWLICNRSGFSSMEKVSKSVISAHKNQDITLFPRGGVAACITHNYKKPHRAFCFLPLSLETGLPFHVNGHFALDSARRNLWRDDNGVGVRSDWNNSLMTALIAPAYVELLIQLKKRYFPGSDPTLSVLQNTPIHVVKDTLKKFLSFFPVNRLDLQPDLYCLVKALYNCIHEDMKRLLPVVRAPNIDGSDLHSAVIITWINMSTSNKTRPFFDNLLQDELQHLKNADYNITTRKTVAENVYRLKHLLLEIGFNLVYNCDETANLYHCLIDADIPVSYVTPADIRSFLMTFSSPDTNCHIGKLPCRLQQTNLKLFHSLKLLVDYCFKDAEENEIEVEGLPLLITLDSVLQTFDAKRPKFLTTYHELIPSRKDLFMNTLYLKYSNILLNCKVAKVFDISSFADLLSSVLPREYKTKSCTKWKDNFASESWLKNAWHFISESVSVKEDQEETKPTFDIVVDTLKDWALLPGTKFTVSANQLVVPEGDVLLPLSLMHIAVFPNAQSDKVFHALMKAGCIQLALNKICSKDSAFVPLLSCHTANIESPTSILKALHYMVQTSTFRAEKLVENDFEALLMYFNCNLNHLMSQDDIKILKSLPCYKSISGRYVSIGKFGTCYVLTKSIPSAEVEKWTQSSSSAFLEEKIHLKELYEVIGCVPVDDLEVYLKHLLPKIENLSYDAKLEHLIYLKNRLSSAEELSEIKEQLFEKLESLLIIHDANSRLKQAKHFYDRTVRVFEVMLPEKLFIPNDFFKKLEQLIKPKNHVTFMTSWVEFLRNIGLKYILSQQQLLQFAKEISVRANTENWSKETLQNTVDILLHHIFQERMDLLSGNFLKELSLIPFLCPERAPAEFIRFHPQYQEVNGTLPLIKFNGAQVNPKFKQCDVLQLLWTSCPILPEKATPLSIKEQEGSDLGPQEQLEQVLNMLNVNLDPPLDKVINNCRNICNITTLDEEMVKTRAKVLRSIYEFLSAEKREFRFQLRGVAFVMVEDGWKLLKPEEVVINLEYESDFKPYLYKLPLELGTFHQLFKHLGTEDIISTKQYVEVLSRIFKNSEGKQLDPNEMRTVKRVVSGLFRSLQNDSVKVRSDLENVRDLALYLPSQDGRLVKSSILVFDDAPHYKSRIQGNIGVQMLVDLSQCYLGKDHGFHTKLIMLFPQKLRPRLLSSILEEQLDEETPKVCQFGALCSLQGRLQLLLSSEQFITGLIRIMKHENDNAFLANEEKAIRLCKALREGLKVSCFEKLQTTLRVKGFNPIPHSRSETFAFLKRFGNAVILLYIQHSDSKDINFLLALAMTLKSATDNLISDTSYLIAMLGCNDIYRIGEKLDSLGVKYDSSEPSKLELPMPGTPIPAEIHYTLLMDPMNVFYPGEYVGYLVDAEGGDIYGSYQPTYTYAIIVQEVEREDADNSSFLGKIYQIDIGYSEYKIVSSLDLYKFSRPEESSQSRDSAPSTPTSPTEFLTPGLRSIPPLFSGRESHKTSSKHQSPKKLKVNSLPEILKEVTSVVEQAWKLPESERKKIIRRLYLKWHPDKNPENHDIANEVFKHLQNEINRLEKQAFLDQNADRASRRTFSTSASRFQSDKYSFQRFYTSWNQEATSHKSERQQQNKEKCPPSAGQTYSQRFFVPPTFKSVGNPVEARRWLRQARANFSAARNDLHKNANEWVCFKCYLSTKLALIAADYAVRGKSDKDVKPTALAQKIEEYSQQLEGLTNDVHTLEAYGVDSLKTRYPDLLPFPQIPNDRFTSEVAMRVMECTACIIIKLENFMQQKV
UniProt O95197: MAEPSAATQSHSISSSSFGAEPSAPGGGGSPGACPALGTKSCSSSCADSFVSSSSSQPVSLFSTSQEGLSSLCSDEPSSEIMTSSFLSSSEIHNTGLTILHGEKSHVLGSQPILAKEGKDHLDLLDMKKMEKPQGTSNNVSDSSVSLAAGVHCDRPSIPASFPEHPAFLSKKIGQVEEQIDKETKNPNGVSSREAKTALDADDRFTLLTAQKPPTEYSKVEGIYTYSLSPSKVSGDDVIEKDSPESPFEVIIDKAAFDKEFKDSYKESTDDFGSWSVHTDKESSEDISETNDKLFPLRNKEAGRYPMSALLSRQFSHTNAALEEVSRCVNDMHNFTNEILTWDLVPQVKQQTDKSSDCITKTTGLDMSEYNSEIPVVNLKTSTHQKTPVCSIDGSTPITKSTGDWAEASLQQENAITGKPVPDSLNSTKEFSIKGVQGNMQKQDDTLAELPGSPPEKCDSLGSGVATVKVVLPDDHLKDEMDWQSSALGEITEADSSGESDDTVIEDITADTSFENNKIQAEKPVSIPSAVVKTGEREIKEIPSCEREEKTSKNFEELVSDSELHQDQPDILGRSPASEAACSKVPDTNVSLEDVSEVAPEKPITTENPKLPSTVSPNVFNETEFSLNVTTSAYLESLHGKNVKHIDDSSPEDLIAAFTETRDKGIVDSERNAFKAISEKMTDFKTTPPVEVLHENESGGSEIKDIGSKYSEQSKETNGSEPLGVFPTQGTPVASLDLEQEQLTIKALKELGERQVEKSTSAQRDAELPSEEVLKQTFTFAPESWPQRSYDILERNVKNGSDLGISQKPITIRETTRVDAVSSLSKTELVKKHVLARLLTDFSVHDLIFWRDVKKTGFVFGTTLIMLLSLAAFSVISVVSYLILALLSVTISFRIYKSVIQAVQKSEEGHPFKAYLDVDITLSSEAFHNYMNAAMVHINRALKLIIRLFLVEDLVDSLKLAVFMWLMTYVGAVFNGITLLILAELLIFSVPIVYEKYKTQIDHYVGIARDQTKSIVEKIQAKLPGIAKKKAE
UniProt Q9NYV6: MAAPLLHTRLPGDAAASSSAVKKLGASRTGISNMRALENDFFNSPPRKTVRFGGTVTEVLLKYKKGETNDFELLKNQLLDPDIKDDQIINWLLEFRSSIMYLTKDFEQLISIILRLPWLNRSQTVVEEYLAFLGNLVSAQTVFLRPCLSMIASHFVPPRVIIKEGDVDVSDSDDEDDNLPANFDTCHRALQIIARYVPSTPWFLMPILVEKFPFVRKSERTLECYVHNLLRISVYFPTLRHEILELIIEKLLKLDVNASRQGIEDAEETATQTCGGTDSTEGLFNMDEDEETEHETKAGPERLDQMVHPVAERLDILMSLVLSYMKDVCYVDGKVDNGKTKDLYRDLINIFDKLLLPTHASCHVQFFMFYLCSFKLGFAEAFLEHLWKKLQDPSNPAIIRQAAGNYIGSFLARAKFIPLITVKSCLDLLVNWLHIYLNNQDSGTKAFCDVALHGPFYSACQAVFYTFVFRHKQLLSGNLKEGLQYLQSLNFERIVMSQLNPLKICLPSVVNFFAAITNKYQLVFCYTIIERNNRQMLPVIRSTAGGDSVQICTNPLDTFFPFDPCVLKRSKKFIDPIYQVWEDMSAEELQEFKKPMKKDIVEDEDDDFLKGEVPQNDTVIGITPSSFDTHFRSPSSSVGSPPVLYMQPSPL

For “RRP8_O43159_320_QRPASLVVADFGCGDCR (UniProt O43159)”, the “probe-labelled cysteine peptide fold change” value (10 µM) was 0.0909 and the “probe-labelled cysteine peptide fold change” value (50 µM) was -0.124.
“RPS2_P15880_222_KLLMMAGIDDCYTSAR (UniProt P15880)” was tested, and the “probe-labelled cysteine peptide fold change” value (10 µM) was -0.0843 and the “probe-labelled cysteine peptide fold change” value (50 µM) was -1.02.
For “RPS17_P08708_35_RVCEEIAIIPSK (UniProt P08708)”, the “probe-labelled cysteine peptide fold change” value (10 µM) was -0.582 and the “probe-labelled cysteine peptide fold change” value (50 µM) was 0.161.
With “SAE1_Q9UBE0_130+134_KPESFFTQFDAVCLTCCSR (UniProt Q9UBE0)” the “probe-labelled cysteine peptide fold change” value (10 µM) was 0.0384 and the “probe-labelled cysteine peptide fold change” value (50 µM) was -0.492.
With “RPS27A_P62979_126_RECPSDECGAGVFMASHFDR (UniProt P62979)” the “probe-labelled cysteine peptide fold change” value (10 µM) was -0.0576 and the “probe-labelled cysteine peptide fold change” value (50 µM) was -0.00701.
For “RXRB_P28702_191_GLHCPPPPGGPGAGK (UniProt P28702)”, the “probe-labelled cysteine peptide fold change” value (10 µM) was 0.0057 and the “probe-labelled cysteine peptide fold change” value (50 µM) was -0.071.
“SACS_Q9NZJ4_1160_WVPACK (UniProt Q9NZJ4)” was tested, and the “probe-labelled cysteine peptide fold change” value (10 µM) was -0.0694 and the “probe-labelled cysteine peptide fold change” value (50 µM) was -0.141.
For “SAAL1_Q96ER3_248_LVPCILEAAK (UniProt Q96ER3)”, the “probe-labelled cysteine peptide fold change” value (10 µM) was 0.0544 and the “probe-labelled cysteine peptide fold change” value (50 µM) was -0.249.
For “RUVBL2_Q9Y230_375_IRCEEEDVEMSEDAYTVLTR (UniProt Q9Y230)”, the “probe-labelled cysteine peptide fold change” value (10 µM) was 0.196 and the “probe-labelled cysteine peptide fold change” value (50 µM) was 0.00188.
“RPS2_P15880_188_CGSVLVR (UniProt P15880)” was tested, and the “probe-labelled cysteine peptide fold change” value (10 µM) was -0.095 and the “probe-labelled cysteine peptide fold change” value (50 µM) was -0.125.
“RTN3_O95197-3_42_SCSSSCAVHDLIFWR (UniProt O95197)” was tested, and the “probe-labelled cysteine peptide fold change” value (10 µM) was -2.02 and the “probe-labelled cysteine peptide fold change” value (50 µM) was -1.97.
For “RPS28_P62857_27_TGSQGQCTQVRVEFMDDTSR (UniProt P62857)”, the “probe-labelled cysteine peptide fold change” value (10 µM) was -0.0524 and the “probe-labelled cysteine peptide fold change” value (50 µM) was -0.8.
“RRN3_Q9NYV6_329_DVCYVDGK (UniProt Q9NYV6)” was tested, and the “probe-labelled cysteine peptide fold change” value (10 µM) was -0.0684 and the “probe-labelled cysteine peptide fold change” value (50 µM) was -0.103.
With “SACS_Q9NZJ4_1285_FCPLAQAVIKPIHDLDLQPYLHNVPK (UniProt Q9NZJ4)” the “probe-labelled cysteine peptide fold change” value (10 µM) was 0.0184 and the “probe-labelled cysteine peptide fold change” value (50 µM) was -0.437.

From the supplement of paper PMC12067093, “Discovery and optimisation of a covalent ligand for TRIM25 and its application to targeted protein ubiquitination” (Chemical Science, 2025)
